Laboratory results reported in patent US8242124B2, “Diketopiperidine derivatives as HIV attachment inhibitors” (priority 2008, dated 2012).
At least one compound was matched to its structure with a doubt left.

Tested on: HIV-1 single-round infectious reporter virus
Experiment: Single-round infectious HIV-1 reporter virus (luciferase) infection assay in HeLa CD4 cells
Conditions: read-out: HIV_SC10PT (EC50, nM), group symbol, 72 h after infection, class per Table 1 key

**Q.** How did the EC50 turn out when COc1cnc(-n2cnc(C)n2)c2[nH]cc(C(=O)C(=O)N3CCc4c(ncnc4-c4ccccc4)C3)c12 [Compound 20] was run?
**A.** < 100 nM
